Experimental data taken from patent publication US20160271248A1, “CXCR4 UP- AND DOWN-REGULATION FOR TREATMENT OF DISEASES OR DISORDERS” (priority 2013, published 2016).

Experiments:
[1] = test system: layer II/III pyramidal neurons of the prefrontal cortex; test: In vivo dendritic spine analysis (Golgi stain, Neurolucida); design: species or system rat; details: slow-release morphine pellets, 4 days, 3-week-old rats
FHC = details: slow-release morphine pellets, 4 days

Structure (SMILES): CN1CC[C@]23c4c5ccc(O)c4O[C@H]2[C@@H](O)C=C[C@H]3[C@H]1C5 [morphine]
- dendritic spine density [1]: significantly decrease dendritic spine densities
- levels of FHC in brain lysates (FHC): increase levels of FHC in the brain lysates
